From doi:10.1101/305508
Results are given in words; binding and its absence hold for the method and conditions named. Binding seen in cells or lysates may run through a third protein.

Amino acid sequences for entries named in this document (tags omitted).
UniProt Q61545: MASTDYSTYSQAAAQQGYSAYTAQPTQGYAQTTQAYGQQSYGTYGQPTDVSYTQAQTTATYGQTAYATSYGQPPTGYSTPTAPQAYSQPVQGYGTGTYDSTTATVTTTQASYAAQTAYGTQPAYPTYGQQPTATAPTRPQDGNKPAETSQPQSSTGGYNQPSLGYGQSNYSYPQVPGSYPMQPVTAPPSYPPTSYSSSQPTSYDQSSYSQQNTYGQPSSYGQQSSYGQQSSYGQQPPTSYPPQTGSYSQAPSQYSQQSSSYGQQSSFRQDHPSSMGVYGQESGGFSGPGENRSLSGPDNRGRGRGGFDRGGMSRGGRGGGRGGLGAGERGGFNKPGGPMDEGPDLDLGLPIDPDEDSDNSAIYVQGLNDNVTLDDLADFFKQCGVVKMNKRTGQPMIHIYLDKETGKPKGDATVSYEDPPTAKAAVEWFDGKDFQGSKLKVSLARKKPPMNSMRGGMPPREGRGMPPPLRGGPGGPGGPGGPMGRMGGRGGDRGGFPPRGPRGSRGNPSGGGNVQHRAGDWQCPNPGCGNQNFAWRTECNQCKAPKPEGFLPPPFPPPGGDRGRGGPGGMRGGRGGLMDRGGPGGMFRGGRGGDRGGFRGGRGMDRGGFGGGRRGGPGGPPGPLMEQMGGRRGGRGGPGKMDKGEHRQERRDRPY
UniProt Q9CWW7: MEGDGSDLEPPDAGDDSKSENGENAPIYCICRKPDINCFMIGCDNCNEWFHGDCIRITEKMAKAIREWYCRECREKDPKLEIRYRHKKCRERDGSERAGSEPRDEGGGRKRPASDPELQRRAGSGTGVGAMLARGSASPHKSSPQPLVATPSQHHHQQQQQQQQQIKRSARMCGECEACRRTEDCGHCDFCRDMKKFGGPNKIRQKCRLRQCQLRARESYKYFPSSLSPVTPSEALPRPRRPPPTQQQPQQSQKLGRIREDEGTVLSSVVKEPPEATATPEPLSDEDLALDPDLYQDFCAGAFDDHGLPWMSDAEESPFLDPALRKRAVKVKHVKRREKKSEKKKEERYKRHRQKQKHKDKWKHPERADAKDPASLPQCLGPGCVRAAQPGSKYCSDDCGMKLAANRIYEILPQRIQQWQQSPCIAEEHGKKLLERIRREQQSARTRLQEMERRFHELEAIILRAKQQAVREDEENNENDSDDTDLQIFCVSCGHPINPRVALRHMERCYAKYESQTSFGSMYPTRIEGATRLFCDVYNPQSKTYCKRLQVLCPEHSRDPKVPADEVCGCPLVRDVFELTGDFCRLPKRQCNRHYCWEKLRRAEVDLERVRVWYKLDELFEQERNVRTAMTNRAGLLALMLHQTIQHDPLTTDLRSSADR

Key:
[1] = biological target: EWSR1 (mouse (endogenous in 14 dpp B6 testis)) (UniProt Q61545); assay: co-IP
HA-tagged EWSR1 = HA-tagged EWSR1 (UniProt Q61545); assay: co-IP

Substance	binding [1]	binding (HA-tagged EWSR1)
CxxC finger protein 1 (from UniProt Q9CWW7 1-660)	no binding	
Myc-tagged mouse CXXC1 (from UniProt Q9CWW7 1-660)		no binding
